4 molecules from article PMC4792581 can be followed below.

Amino acid sequences for entries named in this document (tags omitted).
UniProt P49427: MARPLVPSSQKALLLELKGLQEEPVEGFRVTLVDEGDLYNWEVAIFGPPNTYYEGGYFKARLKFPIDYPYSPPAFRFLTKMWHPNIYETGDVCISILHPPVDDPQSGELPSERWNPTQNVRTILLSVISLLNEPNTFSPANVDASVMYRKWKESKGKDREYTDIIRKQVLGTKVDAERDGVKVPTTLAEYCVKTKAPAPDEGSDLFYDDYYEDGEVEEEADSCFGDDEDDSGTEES
UniProt P10415: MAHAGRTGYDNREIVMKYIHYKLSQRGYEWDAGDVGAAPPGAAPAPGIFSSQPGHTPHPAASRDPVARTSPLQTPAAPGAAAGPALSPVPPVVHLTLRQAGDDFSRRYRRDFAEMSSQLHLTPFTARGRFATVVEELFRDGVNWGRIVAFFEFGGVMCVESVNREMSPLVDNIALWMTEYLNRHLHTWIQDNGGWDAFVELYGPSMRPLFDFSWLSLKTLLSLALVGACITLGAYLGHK

Results are given in words; binding and its absence hold for the method and conditions named. For some of these results: Binding seen in cells or lysates may run through a third protein. Some results given as binding are weak or reduced against the parent protein; the word gives no strength.

Test [1] has as its target recombinant UbcH3 (UniProt P49427). As to the kind of experiment: pull-down; Ni-NTA pull-down, in vitro binding of PPARα with recombinant UbcH3; which of the two was held on the resin is not stated; both purified.
The target in test [2] is Bcl2 (B-cell lymphoma 2), endogenous (human (endogenous in human cell lines)) (UniProt P10415). The experiment in a line: co-IP; HEK293T transfected with vector, PPARα or PPARα/C102A; lysates immunoprecipitated and blotted; in Figure 3D 36 h, with MG132 (10 μM) for 6 h before lysis.
For test [3] the target is unchanged. The experiment in a line: co-IP; immunoprecipitation from cell lysates and Western blot, endogenous proteins; cell line and precipitating antibody not stated. A general note: A western blot detects proteins with antibodies after separation by electrophoresis.

B1: PPARα used in the in vitro Ni-NTA pull-down (protein, UniProt Q07869 1-468)
chain: MVDTESPLCPLSPLEAGDLESPLSEEFLQEMGNIQEISQSIGEDSSGSFGFTEYQYLGSCPGSDGSVITDTLSPASSPSSVTYPVVPGSVDESPSGALNIECRICGDKASGYHYGVHACEGCKGFFRRTIRLKLVYDKCDRSCKIQKKNRNKCQYCRFHKCLSVGMSHNAIRFGRMPRSEKAKLKAEILTCEHDIEDSETADLKSLAKRIYEAYLKNFNMNKVKARVILSGKASNNPPFVIHDMETLCMAEKTLVAKLVANGIQNKEAEVRIFHCCQCTSVETVTELTEFAKAIPGFANLDLNDQVTLLKYGVYEAIFAMLSSVMNKDGMLVAYGNGFITREFLKSLRKPFCDIMEPKFDFAMKFNALELDDSDISLFVAAIICCGDRPGLLNVGHIEKMQEGIVHVLRLHLQSNHPDDIFLFPKLLQKMADLRQLVTEHAQLVQIIKKTESDAALHPLLQEIYRDMY
Take B1: in test [1], the binding result is “binds”.

B2: PPARα, overexpressed from pcDNA3 (protein, UniProt Q07869 1-468)
chain: MVDTESPLCPLSPLEAGDLESPLSEEFLQEMGNIQEISQSIGEDSSGSFGFTEYQYLGSCPGSDGSVITDTLSPASSPSSVTYPVVPGSVDESPSGALNIECRICGDKASGYHYGVHACEGCKGFFRRTIRLKLVYDKCDRSCKIQKKNRNKCQYCRFHKCLSVGMSHNAIRFGRMPRSEKAKLKAEILTCEHDIEDSETADLKSLAKRIYEAYLKNFNMNKVKARVILSGKASNNPPFVIHDMETLCMAEKTLVAKLVANGIQNKEAEVRIFHCCQCTSVETVTELTEFAKAIPGFANLDLNDQVTLLKYGVYEAIFAMLSSVMNKDGMLVAYGNGFITREFLKSLRKPFCDIMEPKFDFAMKFNALELDDSDISLFVAAIICCGDRPGLLNVGHIEKMQEGIVHVLRLHLQSNHPDDIFLFPKLLQKMADLRQLVTEHAQLVQIIKKTESDAALHPLLQEIYRDMY
For B2, in test [2], the binding result was “binds”.

B3: PPARα/C102A mutant (protein, UniProt Q07869 1-468)
chain: MVDTESPLCPLSPLEAGDLESPLSEEFLQEMGNIQEISQSIGEDSSGSFGFTEYQYLGSCPGSDGSVITDTLSPASSPSSVTYPVVPGSVDESPSGALNIEARICGDKASGYHYGVHACEGCKGFFRRTIRLKLVYDKCDRSCKIQKKNRNKCQYCRFHKCLSVGMSHNAIRFGRMPRSEKAKLKAEILTCEHDIEDSETADLKSLAKRIYEAYLKNFNMNKVKARVILSGKASNNPPFVIHDMETLCMAEKTLVAKLVANGIQNKEAEVRIFHCCQCTSVETVTELTEFAKAIPGFANLDLNDQVTLLKYGVYEAIFAMLSSVMNKDGMLVAYGNGFITREFLKSLRKPFCDIMEPKFDFAMKFNALELDDSDISLFVAAIICCGDRPGLLNVGHIEKMQEGIVHVLRLHLQSNHPDDIFLFPKLLQKMADLRQLVTEHAQLVQIIKKTESDAALHPLLQEIYRDMY
On to B3, for which, in test [2], the binding entry is “no binding”.

B4: PPARα (peroxisome-proliferator-activated receptor α), endogenous (protein, UniProt Q07869 1-468)
chain: MVDTESPLCPLSPLEAGDLESPLSEEFLQEMGNIQEISQSIGEDSSGSFGFTEYQYLGSCPGSDGSVITDTLSPASSPSSVTYPVVPGSVDESPSGALNIECRICGDKASGYHYGVHACEGCKGFFRRTIRLKLVYDKCDRSCKIQKKNRNKCQYCRFHKCLSVGMSHNAIRFGRMPRSEKAKLKAEILTCEHDIEDSETADLKSLAKRIYEAYLKNFNMNKVKARVILSGKASNNPPFVIHDMETLCMAEKTLVAKLVANGIQNKEAEVRIFHCCQCTSVETVTELTEFAKAIPGFANLDLNDQVTLLKYGVYEAIFAMLSSVMNKDGMLVAYGNGFITREFLKSLRKPFCDIMEPKFDFAMKFNALELDDSDISLFVAAIICCGDRPGLLNVGHIEKMQEGIVHVLRLHLQSNHPDDIFLFPKLLQKMADLRQLVTEHAQLVQIIKKTESDAALHPLLQEIYRDMY
As to B4, the binding result in test [3] is listed as “binds”.
